Measured values taken from the supplement of paper PMC12067093, “Discovery and optimisation of a covalent ligand for TRIM25 and its application to targeted protein ubiquitination” (Chemical Science, 2025).
The list shows a part of the results.

The chains behind the UniProt entries cited, without tags or fusion partners. Where a name states a change or a piece, a line headed by the entry shows the natural chain unless it says otherwise.
UniProt O60832: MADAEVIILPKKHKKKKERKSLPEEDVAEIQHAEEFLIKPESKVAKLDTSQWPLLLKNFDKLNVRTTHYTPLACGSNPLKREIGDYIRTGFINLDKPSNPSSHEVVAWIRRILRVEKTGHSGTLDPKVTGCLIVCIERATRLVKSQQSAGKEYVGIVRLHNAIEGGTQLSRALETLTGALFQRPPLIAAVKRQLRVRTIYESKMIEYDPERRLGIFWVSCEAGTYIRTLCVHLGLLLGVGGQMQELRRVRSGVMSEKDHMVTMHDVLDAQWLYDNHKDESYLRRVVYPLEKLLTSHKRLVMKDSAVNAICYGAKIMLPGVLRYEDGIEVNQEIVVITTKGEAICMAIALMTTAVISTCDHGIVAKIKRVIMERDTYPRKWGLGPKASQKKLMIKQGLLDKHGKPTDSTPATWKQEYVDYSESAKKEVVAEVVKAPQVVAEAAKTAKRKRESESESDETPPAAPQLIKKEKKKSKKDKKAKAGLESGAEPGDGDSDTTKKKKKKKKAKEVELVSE
UniProt Q8TDJ6, whole entry, looked up: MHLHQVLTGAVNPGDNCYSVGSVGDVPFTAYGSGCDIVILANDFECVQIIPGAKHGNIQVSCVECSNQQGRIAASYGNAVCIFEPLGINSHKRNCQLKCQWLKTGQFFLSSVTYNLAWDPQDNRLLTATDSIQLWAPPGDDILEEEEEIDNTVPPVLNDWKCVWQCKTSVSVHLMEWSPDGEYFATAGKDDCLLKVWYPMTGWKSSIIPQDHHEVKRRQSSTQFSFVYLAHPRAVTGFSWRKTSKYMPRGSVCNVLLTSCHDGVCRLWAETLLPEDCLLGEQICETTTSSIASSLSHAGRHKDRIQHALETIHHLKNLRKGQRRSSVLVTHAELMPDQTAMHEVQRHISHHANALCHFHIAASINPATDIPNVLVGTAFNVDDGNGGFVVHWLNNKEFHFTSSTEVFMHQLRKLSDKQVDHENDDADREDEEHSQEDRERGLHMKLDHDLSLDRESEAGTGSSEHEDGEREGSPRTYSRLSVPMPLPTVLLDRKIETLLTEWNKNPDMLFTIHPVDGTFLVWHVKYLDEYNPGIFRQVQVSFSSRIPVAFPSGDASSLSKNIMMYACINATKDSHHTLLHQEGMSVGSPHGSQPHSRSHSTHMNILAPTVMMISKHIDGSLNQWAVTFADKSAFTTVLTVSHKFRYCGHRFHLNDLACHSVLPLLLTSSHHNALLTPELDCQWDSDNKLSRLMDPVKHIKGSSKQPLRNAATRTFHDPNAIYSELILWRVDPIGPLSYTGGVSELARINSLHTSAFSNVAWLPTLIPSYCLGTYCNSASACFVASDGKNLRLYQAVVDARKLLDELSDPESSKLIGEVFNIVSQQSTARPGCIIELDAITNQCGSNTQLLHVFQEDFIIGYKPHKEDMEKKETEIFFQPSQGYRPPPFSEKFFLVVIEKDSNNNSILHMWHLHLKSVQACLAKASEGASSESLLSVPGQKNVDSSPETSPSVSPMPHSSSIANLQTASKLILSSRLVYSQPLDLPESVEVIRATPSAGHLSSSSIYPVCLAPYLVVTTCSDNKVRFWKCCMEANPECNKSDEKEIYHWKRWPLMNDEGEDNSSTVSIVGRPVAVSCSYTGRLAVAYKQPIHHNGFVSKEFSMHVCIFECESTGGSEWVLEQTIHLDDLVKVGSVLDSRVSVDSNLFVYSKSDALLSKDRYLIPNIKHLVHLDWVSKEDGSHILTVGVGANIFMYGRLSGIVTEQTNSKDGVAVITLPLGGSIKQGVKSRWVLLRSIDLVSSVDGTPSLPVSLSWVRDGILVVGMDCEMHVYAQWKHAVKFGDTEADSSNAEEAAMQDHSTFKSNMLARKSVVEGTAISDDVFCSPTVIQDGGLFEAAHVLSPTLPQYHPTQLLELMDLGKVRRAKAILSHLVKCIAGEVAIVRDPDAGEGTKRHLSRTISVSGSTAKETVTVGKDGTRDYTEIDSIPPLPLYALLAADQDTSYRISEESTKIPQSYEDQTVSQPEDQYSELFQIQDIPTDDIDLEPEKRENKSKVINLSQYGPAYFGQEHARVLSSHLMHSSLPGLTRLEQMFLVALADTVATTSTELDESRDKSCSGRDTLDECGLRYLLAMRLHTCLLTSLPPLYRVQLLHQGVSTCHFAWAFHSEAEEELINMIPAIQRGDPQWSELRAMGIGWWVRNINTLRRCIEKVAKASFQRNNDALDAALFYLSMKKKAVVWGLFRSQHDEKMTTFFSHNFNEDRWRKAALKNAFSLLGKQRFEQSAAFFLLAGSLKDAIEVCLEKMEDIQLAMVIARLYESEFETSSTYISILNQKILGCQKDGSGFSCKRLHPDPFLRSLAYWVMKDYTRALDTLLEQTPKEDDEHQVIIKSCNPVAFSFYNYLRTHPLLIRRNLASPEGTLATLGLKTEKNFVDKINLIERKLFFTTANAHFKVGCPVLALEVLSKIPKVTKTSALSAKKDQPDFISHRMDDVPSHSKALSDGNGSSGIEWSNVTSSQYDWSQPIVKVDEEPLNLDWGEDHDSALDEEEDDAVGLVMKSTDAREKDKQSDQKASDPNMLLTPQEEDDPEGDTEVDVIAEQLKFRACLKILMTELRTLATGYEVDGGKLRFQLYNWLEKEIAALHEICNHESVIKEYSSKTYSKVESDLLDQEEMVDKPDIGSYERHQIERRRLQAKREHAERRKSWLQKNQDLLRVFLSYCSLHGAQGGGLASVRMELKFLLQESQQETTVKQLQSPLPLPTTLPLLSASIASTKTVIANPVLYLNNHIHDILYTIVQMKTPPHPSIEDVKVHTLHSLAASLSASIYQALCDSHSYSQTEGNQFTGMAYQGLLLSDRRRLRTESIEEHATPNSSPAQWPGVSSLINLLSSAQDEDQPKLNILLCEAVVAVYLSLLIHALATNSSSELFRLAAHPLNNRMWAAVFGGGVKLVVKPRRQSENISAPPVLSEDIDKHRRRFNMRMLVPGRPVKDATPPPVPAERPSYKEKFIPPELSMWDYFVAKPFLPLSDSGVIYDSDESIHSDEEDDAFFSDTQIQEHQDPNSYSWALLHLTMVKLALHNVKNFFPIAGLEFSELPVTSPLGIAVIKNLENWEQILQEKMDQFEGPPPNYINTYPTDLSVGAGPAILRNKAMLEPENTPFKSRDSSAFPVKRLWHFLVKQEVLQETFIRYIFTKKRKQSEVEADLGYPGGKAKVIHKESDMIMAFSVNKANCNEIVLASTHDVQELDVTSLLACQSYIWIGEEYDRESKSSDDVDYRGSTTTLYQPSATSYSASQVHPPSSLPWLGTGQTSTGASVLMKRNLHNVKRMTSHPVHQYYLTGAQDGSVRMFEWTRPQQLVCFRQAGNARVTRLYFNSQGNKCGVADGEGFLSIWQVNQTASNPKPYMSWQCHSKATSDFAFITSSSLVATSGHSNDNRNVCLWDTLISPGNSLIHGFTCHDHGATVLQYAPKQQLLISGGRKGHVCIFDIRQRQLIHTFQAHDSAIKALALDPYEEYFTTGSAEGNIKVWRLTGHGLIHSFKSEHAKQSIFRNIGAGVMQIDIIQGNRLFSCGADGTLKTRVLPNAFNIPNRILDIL
UniProt Q9Y2L1: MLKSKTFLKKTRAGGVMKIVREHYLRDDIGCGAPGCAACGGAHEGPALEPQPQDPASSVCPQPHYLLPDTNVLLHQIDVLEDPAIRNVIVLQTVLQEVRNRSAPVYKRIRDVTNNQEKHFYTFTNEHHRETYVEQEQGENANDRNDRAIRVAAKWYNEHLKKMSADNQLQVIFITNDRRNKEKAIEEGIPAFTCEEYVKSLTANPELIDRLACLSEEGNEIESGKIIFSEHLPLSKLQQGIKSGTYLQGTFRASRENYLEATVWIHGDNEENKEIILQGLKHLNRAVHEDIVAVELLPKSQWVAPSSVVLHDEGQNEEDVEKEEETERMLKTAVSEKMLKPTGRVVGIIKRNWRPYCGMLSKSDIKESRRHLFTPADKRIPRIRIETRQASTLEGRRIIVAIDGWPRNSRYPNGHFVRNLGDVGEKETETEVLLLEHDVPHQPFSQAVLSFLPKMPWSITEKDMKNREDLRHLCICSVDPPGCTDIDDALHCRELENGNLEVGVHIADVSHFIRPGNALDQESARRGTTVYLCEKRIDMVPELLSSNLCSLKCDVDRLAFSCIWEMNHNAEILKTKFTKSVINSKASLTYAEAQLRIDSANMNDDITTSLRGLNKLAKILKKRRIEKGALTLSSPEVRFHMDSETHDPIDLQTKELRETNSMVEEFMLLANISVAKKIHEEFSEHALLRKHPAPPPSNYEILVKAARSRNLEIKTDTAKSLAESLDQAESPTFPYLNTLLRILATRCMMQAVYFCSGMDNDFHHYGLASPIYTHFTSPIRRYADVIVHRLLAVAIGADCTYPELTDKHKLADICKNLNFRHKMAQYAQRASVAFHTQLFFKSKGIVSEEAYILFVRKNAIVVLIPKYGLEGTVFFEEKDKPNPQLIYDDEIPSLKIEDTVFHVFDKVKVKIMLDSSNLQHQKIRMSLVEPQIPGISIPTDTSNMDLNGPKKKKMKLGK
UniProt Q08211, whole entry, looked up: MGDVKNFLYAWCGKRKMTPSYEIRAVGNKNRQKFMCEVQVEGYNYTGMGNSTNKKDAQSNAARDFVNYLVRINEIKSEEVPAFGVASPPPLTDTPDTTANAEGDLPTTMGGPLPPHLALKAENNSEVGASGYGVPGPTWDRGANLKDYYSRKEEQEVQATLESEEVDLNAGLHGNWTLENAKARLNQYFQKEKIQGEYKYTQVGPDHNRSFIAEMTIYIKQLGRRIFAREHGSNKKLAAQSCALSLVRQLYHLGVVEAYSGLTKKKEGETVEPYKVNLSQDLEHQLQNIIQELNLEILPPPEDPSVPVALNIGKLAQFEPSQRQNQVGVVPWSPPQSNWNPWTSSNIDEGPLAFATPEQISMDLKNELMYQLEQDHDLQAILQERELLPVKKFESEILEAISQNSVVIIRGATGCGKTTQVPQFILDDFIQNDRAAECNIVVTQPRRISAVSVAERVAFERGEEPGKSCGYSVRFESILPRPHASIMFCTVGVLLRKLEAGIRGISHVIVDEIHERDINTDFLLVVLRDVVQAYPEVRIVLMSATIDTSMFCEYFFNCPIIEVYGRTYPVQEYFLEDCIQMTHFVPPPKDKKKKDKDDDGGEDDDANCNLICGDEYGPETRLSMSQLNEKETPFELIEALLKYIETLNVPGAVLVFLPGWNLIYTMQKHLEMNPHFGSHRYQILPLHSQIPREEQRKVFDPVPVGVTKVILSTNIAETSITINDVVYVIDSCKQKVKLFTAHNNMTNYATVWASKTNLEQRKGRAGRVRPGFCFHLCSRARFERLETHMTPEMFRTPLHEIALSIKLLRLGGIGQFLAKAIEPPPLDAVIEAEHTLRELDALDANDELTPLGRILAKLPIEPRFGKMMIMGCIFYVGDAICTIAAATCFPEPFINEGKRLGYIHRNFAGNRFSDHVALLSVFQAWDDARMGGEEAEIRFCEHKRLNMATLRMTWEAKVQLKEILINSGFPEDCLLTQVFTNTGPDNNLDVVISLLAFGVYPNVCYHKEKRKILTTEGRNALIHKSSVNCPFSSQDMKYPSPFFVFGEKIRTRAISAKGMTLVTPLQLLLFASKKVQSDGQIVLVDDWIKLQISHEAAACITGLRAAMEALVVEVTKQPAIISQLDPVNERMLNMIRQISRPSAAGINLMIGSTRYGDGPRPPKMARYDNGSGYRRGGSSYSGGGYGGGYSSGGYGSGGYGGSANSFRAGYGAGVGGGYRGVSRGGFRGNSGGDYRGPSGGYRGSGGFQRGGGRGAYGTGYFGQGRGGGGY
UniProt O00429, whole entry, looked up: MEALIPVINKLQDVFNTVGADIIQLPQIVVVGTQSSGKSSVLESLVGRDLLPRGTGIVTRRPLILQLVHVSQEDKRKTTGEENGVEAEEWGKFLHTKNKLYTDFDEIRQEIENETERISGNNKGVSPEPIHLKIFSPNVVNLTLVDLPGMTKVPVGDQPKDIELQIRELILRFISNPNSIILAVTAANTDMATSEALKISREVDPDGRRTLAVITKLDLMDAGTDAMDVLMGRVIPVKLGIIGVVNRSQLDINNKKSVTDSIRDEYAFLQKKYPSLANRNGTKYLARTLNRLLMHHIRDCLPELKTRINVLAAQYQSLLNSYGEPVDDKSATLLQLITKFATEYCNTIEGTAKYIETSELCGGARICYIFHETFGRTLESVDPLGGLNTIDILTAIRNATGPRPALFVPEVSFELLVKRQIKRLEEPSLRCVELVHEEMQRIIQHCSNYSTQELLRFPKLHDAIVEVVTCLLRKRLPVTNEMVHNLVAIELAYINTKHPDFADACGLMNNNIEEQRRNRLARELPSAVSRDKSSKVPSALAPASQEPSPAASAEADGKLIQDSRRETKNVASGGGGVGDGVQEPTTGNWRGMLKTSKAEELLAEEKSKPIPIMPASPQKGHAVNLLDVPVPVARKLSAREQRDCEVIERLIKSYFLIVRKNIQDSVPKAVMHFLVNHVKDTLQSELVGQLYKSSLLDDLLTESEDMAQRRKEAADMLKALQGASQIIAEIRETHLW

Compound: CC1Cc2ccccc2N1C(=O)C1CCCN(C1)C(=O)CCl (mixture of isomers) [TRIM25 ligand 11 (diastereomer mixture)]
Assay: probe-labelled cysteine peptide fold change vs DMSO (competition) (log2 fold change); higher = less target engagement (more negative = stronger competition)
Conditions: THP-1, incubation time: 4 h
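Also: competitive chemoproteomic profiling in live THP-1 cells with an iodoacetamide desthiobiotin (IA-DTB) probe, comparing probe-labelled peptide intensities in compound-treated cells against DMSO-treated controls.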

| Target | probe-labelled cysteine peptide fold change (10 µM) | probe-labelled cysteine peptide fold change (50 µM) |
| --- | --- | --- |
| DNAJB1_P25685_269_EALCGCTVNVPTLDGR (UniProt P25685) | 0.0447 | 0.0617 |
| DIS3L_Q8TF46_203_AAHELCDSILQSR (UniProt Q8TF46) | 0.0157 | 0.0268 |
| DKC1_O60832_131_VTGCLIVCIER (UniProt O60832) | -0.0126 | 0.125 |
| DNAJC10_Q8IXB1_301_LSGMLDGLVNVGWMDCATQDNLCK (UniProt Q8IXB1) | 0.117 | 0.0761 |
| DMXL2_Q8TDJ6_62_HGNIQVSCVECSNQQGR (UniProt Q8TDJ6) | -0.159 | -0.593 |
| DHX30_Q7L2E3_118_QAAAAACQLFK (UniProt Q7L2E3) | -0.0733 | -0.0927 |
| DKC1_O60832_310_DSAVNAICYGAK (UniProt O60832) | -0.15 | -0.0673 |
| DIS3_Q9Y2L1_492_HLCICSVDPPGCTDIDDALHCR (UniProt Q9Y2L1) | 0.202 | 0.173 |
| DNAJA1_P31689_153_KGAVECCPNCR (UniProt P31689) | -0.0751 | 0.023 |
| DHX9_Q08211_1099_LQISHEAAACITGLR (UniProt Q08211) | 0.0435 | 0.019 |
| DHX38_Q92620_618_FEDCTSENTLIK (UniProt Q92620) | 0.0471 | 0.0176 |
| DHX38_Q92620_865_TGPGQCFR (UniProt Q92620) | -0.0367 | 0.0212 |
| DIS3_Q9Y2L1_483_HLCICSVDPPGCTDIDDALHCR (UniProt Q9Y2L1) | 0.117 | -0.0441 |
| DNAJB14_Q8TBM8_77_KPSGSGDQSKPNCTK (UniProt Q8TBM8) | -0.262 | -0.569 |
| DNAJC7_Q99615_175_ALEFAPACHR (UniProt Q99615) | 0.0846 | 0.158 |
| DKK2_Q9UBU2_214_ICKPVLHQGEVCTK (UniProt Q9UBU2) | -0.16 | -0.0316 |
| DNM1L_O00429_300_DCLPELK (UniProt O00429) | -0.02 | 0.111 |
| DLAT_P10515_291_DVPLGTPLCIIVEK (UniProt P10515) | 0.0496 | 0.0162 |
| DHX36_Q9H2U1_135_NTPCSENK (UniProt Q9H2U1) | 0.00484 | -0.186 |
| DHX9_Q08211_773+777_VRPGFCFHLCSR (UniProt Q08211) | -0.114 | -0.0619 |

| Target | probe-labelled cysteine peptide fold change (10 µM) | probe-labelled cysteine peptide fold change (50 µM) |
| --- | --- | --- |
| DIS3_Q9Y2L1_549_IDMVPELLSSNLCSLK (UniProt Q9Y2L1) | 0.161 | 0.289 |
| DIDO1_Q9BTC0_1079_AYPVSGCFDYLSEDLPDTIHIGGR (UniProt Q9BTC0) | -0.061 | -0.0264 |
| DGLUCY_Q7Z3D6_316_GIGHLLCK (UniProt Q7Z3D6) | 0.136 | 0.0693 |
| DNAJC7_Q99615_7_AAAAECDVVMAATEPELLDDQEAK (UniProt Q99615) | 0.137 | -0.195 |
| DHX9_Q08211_777_VRPGFCFHLCSR (UniProt Q08211) | -0.151 | 0.0595 |
| DIAPH3_Q9NSV4_1158_EACNVESNR (UniProt Q9NSV4) | -0.126 | -0.126 |
| DHX30_Q7L2E3_286_LSTLTLLWPCPMTFVAK (UniProt Q7L2E3) | -0.558 | -0.944 |
| DIAPH2_O60879_775_NEYDDLCEPEQFGVVMSSVK (UniProt O60879) | 0.166 | -0.118 |
| DIAPH1_O60610_1005_NAGAFGFNISFLCK (UniProt O60610) | -0.119 | -0.0371 |
| DNAAF2_Q9NVR5_701_EYIEHCNTPTTDSDSSIAVK (UniProt Q9NVR5) | -0.0917 | -0.143 |
| DNM1L_O00429_644_DCEVIER (UniProt O00429) | 0.0323 | 0.111 |
| DHX33_Q9H6R0_190_YSCVILDEAHER (UniProt Q9H6R0) | 0.199 | 0.0264 |
| DHX36_Q9H2U1_611_VQPGHCYHLYNGLR (UniProt Q9H2U1) | 0.145 | 0.0346 |
| DHRS7_Q9Y394_147_SLCMDTSLDVYRK (UniProt Q9Y394) | 0.00619 | -0.133 |
| DNAJC10_Q8IXB1_161_EFDAAVNSGELWFVNFYSPGCSHCHDLAPTWR (UniProt Q8IXB1) | 0.476 | -0.235 |
| DIDO1_Q9BTC0_288+296_CEEWFHGDCVGISEAR (UniProt Q9BTC0) | 0.272 | 0.148 |
| DIS3_Q9Y2L1_533_GTTVYLCEK (UniProt Q9Y2L1) | -0.101 | -0.119 |
| DKC1_O60832_74_TTHYTPLACGSNPLKR (UniProt O60832) | -0.0788 | -0.303 |
| DMXL2_Q8TDJ6_2925_KGHVCIFDIR (UniProt Q8TDJ6) | 0.00104 | 0.142 |

Part of the list above, as tab-separated lines.
Target	probe-labelled cysteine peptide fold change (10 µM)	probe-labelled cysteine peptide fold change (50 µM)
DHX9_Q08211_777_VRPGFCFHLCSR (UniProt Q08211)	-0.151	0.0595
DIAPH3_Q9NSV4_1158_EACNVESNR (UniProt Q9NSV4)	-0.126	-0.126
DIAPH2_O60879_775_NEYDDLCEPEQFGVVMSSVK (UniProt O60879)	0.166	-0.118
DIAPH1_O60610_1005_NAGAFGFNISFLCK (UniProt O60610)	-0.119	-0.0371
DHX36_Q9H2U1_611_VQPGHCYHLYNGLR (UniProt Q9H2U1)	0.145	0.0346
DHRS7_Q9Y394_147_SLCMDTSLDVYRK (UniProt Q9Y394)	0.00619	-0.133
DKC1_O60832_74_TTHYTPLACGSNPLKR (UniProt O60832)	-0.0788	-0.303
DMXL2_Q8TDJ6_2925_KGHVCIFDIR (UniProt Q8TDJ6)	0.00104	0.142
